Laboratory results taken from patent publication US6911429B2, “Compositions and methods for treating cellular response to injury and other proliferating cell disorders regulated by hyaladherin and hyaluronans” (Transition Therapeutics Inc., priority 1999, dated 2005).
No constants are given. Whether binding was seen depends on the method and setting. A result given as binding can be weak or reduced; the word gives no strength. Tags and fused reporters may be left off the sequences shown.

Tests used:
[1] = target: erk1 His-6-tagged fusion protein; test: in vitro bead pull-down
[2] = target: erk1 His-6-tagged fusion protein; test: in vitro bead pull-down (figure legend)
[3] = target: erk1 His-6-tagged fusion protein; test: erk1 His-6 pulled down on RHAMM-coupled beads, anti-erk1 western blot

Measured: binding

B1: RHAMM v5 (95 kDa full length murine RHAMM) (receptor, UniProt Q00547 1-794, looked up)
chain: MSFPKAPLKRFNDPSGCAPSPGAYDVKTSEATKGPVSFQKSQRFKNQRESQQNLNIDKDTTLLASAKKAKKSVSKKDSQKNDKDVKRLEKEIRALLQERGTQDKRIQDMESELEKTEAKLNAAVREKTSLSASNASLEKRLTELTRANELLKAKFSEDGHQKNMRALSLELMKLRNKRETKMRSMMVKQEGMELKLQATQKDLTESKGKIVQLEGKLVSIEKEKIDEKCETEKLLEYIQEISCASDQVEKCKVDIAQLEEDLKEKDREILSLKQSLEENITFSKQIEDLTVKCQLLETERDNLVSKDRERAETLSAEMQILTERLALERQEYEKLQQKELQSQSLLQQEKELSARLQQQLCSFQEEMTSEKNVFKEELKLALAELDAVQQKEEQSERLVKQLEEETKSTAEQLTRLDNLLREKEVELEKHIAAHAQAILIAQEKYNDTAQSLRDVTAQLESVQEKYNDTAQSLRDVTAQLESEQEKYNDTAQSLRDVTAQLESEQEKYNDTAQSLRDVTAQLESVQEKYNDTAQSLRDVTAQLESYKSSTLKEIEDLKLENLTLQEKVAMAEKSVEDVQQQILTAESTNQEYARMVQDLQNRSTLKEEEIKEITSSFLEKITDLKNQLRQQDEDFRKQLEEKGKRTAEKENVMTELTMEINKWRLLYEELYEKTKPFQQQLDAFEAEKQALLNEHGATQEQLNKIRDSYAQLLGHQNLKQKIKHVVKLKDENSQLKSEVSKLRSQLVKRKQNELRLQGELDKALGIRHFDPSKAFCHASKENFTPLKEGNPNCC
binds: all assays above
